Laboratory results reported in US8093218B2, “Peptide derived from vascular endothelial growth factor receptor-1 binding integrin α5β1 having proangiogenic activity” (Provincia Italiana della Congregazione dei Figli …, priority 2006, dated 2012).
These are yes or no findings as the source states them, for the method shown. Binding calls can cover weak binding; strength is not graded here.

Molecular target: purified integrin α5β1
Assay: solid-phase binding test: purified integrin α5β1 on plates covered with peptides, anti-integrin antibody, colorimetric

B1: peptide 12 (NYLTHRQ, VEGFR-1 residues 219-225) (peptide)
peptide: NYLTHRQ
notes: Covalently linked to plates or coated on magnetic beads, or added in solution to HUVEC; also called P12; original peptide 12
binding: binds
